Results as given in US20110065102A1.
No constants are given. Whether binding was seen depends on the method and setting. In cells and extracts the contact can be indirect. Some entries that bind do so weakly or less than the wild type. Sequences can lack the tags named with a protein.

Amino acid sequences for entries named in this document (tags omitted).
UniProt P07437: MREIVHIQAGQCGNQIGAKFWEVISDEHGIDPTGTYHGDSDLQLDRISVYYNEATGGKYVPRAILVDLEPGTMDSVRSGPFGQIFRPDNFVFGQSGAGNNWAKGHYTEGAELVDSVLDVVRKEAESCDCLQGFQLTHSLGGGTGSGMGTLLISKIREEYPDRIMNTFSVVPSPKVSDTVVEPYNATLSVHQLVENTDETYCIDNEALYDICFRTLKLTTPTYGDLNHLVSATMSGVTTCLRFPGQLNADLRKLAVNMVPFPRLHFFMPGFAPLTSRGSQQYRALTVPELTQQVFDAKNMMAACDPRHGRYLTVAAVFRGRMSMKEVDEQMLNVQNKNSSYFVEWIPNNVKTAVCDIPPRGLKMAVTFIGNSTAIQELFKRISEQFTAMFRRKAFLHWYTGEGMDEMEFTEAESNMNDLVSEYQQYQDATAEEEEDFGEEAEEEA

Assays:
[1] = biological target: β-tubulin (endogenous, co-precipitated from HCS-2/8 or HEK293 cell lysates) (UniProt P07437); assay: pull-down with S-protein agarose, western blot with anti-β-tubulin antibody
[2] = biological target: β-tubulin (endogenous, co-precipitated from HCS-2/8 or HEK293 cell lysates) (UniProt P07437); assay: pull-down with S-protein, western blot (figure legend)

binding [1]: binds
binding [2]: binds
B1: amino-terminal S-tagged DIVA (Dual Intracellular Von Willebrand factor domain A) expressed from pTriEx4 in HCS-2/8 or HEK293 cells (protein, not shown: small tags and cut ends)
chain: MGLALKFILDHHFQEASGSRASQEVPQIAVVISSGPVEDHVHGPAKALRKAGILLYAIGVRDAVWAELREIASSPQENFTSFVPNFSGLSNLAQKLRQELCDTLAKAAPHVDHVSPACREAALADIVFLVDSSTSIGPQNFQKVKNFLYSVILGLDISSDRVRVGLAQYNDNIYPAFQLNQHPLKSMILEQIQNLPYRTGGTNTGSALEFIRTNYLTEESGSRAKDRVPQIVILVTDGESNDEVQEVADRLKEDGVVVLCGRGQCPGCPRVAKNNQ
